The list shows a part of the results.
Compound: CC1Cc2ccccc2N1C(=O)C1CCCN(C1)C(=O)CCl (mixture of isomers) [TRIM25 ligand 11 (diastereomer mixture)]
Experiment: probe-labelled cysteine peptide fold change vs DMSO (competition) (log2 fold change); higher = less target engagement (more negative = stronger competition)
Details: THP-1, incubation time: 4 h
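Note: competitive chemoproteomic profiling in live THP-1 cells with an iodoacetamide desthiobiotin (IA-DTB) probe, comparing probe-labelled peptide intensities in compound-treated cells against DMSO-treated controls.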

Question: Which results are given for “RBM25_P49756_110_CGLVLSWK (UniProt P49756)”?
Answer: probe-labelled cysteine peptide fold change (10 µM): 0.107; probe-labelled cysteine peptide fold change (50 µM): -0.0148

Question: Which results are given for “RAI1_Q7Z5J4_899_APLICTK (UniProt Q7Z5J4)”?
Answer: probe-labelled cysteine peptide fold change (10 µM): -0.024; probe-labelled cysteine peptide fold change (50 µM): -0.376

Question: “RANBP2_P49792_581_HGLQPALLVHWAECLQK (UniProt P49792)” was tested. Which “probe-labelled cysteine peptide fold change” value (10 µM) did it give?
Answer: 0.0261

Question: What about the “probe-labelled cysteine peptide fold change” value (50 µM) of the same target?
Answer: 0.0609

Question: For “RAD54L2_Q9Y4B4_1143_MAASGSQGPSCESTSNGR (UniProt Q9Y4B4)”, which “probe-labelled cysteine peptide fold change” value (10 µM) is on record?
Answer: 0.113

Question: What about the “probe-labelled cysteine peptide fold change” value (50 µM) of the same target?
Answer: -0.0522

Question: What does the source list for “RBBP6_Q7Z6E9_27_LNYDTVTFDGLHISLCDLK (UniProt Q7Z6E9)”?
Answer: probe-labelled cysteine peptide fold change (10 µM): 0.212; probe-labelled cysteine peptide fold change (50 µM): 0.0195

Question: Which “probe-labelled cysteine peptide fold change” value (10 µM) does the source give for “RASA2_Q15283_354_SPDVQPISASAAYILSEICR (UniProt Q15283)” here?
Answer: -0.127

Question: What about the “probe-labelled cysteine peptide fold change” value (50 µM) of the same target?
Answer: 0.22

Question: Which “probe-labelled cysteine peptide fold change” value (10 µM) does the source give for “RANBP6_O60518_741_VAAAESMPFLLECAR (UniProt O60518)” here?
Answer: 0.0327

Question: What about the “probe-labelled cysteine peptide fold change” value (50 µM) of the same target?
Answer: -0.00855

Question: With “RANBP1_P43487_132_AWVWNTHADFADECPKPELLAIR (UniProt P43487)” as the target, how does the “probe-labelled cysteine peptide fold change” value (10 µM) read?
Answer: -0.121

Question: And the “probe-labelled cysteine peptide fold change” value (50 µM)?
Answer: -0.198

Question: Which results are given for “RBBP6_Q7Z6E9_283_DIMTDAVVIPCCGNSYCDECIR (UniProt Q7Z6E9)”?
Answer: probe-labelled cysteine peptide fold change (10 µM): 0.17; probe-labelled cysteine peptide fold change (50 µM): -0.104

Question: For “RBM27_Q9P2N5_279_CRDYDER (UniProt Q9P2N5)”, which “probe-labelled cysteine peptide fold change” value (10 µM) is on record?
Answer: -0.0287

Question: And the “probe-labelled cysteine peptide fold change” value (50 µM)?
Answer: -0.0206

Question: Which results are given for “RASSF4_Q9H2L5_33_TYNCYHEGK (UniProt Q9H2L5)”?
Answer: probe-labelled cysteine peptide fold change (10 µM): -0.11; probe-labelled cysteine peptide fold change (50 µM): 0.0698

Question: Which “probe-labelled cysteine peptide fold change” value (10 µM) does the source give for “RBM28_Q9NW13_97_NENSECPK (UniProt Q9NW13)” here?
Answer: -0.0172

Question: What about the “probe-labelled cysteine peptide fold change” value (50 µM) of the same target?
Answer: -0.0233

Question: “RALGAPA2_Q2PPJ7_418_GYVNFVNEVFHQAFLLPSCEIAVTR (UniProt Q2PPJ7)” was tested. Which “probe-labelled cysteine peptide fold change” value (10 µM) did it give?
Answer: 0.282

Question: And the “probe-labelled cysteine peptide fold change” value (50 µM)?
Answer: 0.183

Question: “RASA3_Q14644_144_LSEVITDTGVVCHK (UniProt Q14644)” was tested. Which “probe-labelled cysteine peptide fold change” value (10 µM) did it give?
Answer: 0.0131

Question: And the “probe-labelled cysteine peptide fold change” value (50 µM)?
Answer: 0.214

Question: How did the “probe-labelled cysteine peptide fold change” value (10 µM) turn out when “RANBP2_P49792_1243_ICANHYISPDMK (UniProt P49792)” was run?
Answer: 0.0377

Question: And the “probe-labelled cysteine peptide fold change” value (50 µM)?
Answer: -0.0178

Question: For “RAN_P62826_120_VCENIPIVLCGNK (UniProt P62826)”, which “probe-labelled cysteine peptide fold change” value (10 µM) is on record?
Answer: -0.0207

Question: What about the “probe-labelled cysteine peptide fold change” value (50 µM) of the same target?
Answer: 0.035

Question: Which results are given for “RAPGEF1_Q13905_958_QTSEGLAEYCTLIDSSSSFR (UniProt Q13905)”?
Answer: probe-labelled cysteine peptide fold change (10 µM): -0.129; probe-labelled cysteine peptide fold change (50 µM): -0.121

Question: How did the “probe-labelled cysteine peptide fold change” value (10 µM) turn out when “RCC1L_Q96I51_237_MQDFDGQVVQVACGQDHSLFLTDK (UniProt Q96I51)” was run?
Answer: 0.267

Question: And the “probe-labelled cysteine peptide fold change” value (50 µM)?
Answer: -0.072

Question: What does the source list for “RBBP9_O75884_163_FTDCGHFQNTEFHELITVVK (UniProt O75884)”?
Answer: probe-labelled cysteine peptide fold change (10 µM): 0.0304; probe-labelled cysteine peptide fold change (50 µM): -0.0766

Question: With “RCC1L_Q96I51_181_VLQVSCGR (UniProt Q96I51)” as the target, how does the “probe-labelled cysteine peptide fold change” value (10 µM) read?
Answer: 0.303

Question: And the “probe-labelled cysteine peptide fold change” value (50 µM)?
Answer: 0.352

Question: Which results are given for “RCHY1_Q96PM5_87_IQHAQQTCEECSTLFGEYYCDICHLFDK (UniProt Q96PM5)”?
Answer: probe-labelled cysteine peptide fold change (10 µM): -0.177; probe-labelled cysteine peptide fold change (50 µM): -0.00982

Question: What does the source list for “RARS2_Q5T160_479_LHSLEETFGCGYLNDFNTACLQEPQSVSILQHLLR (UniProt Q5T160)”?
Answer: probe-labelled cysteine peptide fold change (10 µM): 0.0498; probe-labelled cysteine peptide fold change (50 µM): 0.199

Question: “RASA3_Q14644_328_SADVEPVSASAAHILGEVCR (UniProt Q14644)” was tested. Which “probe-labelled cysteine peptide fold change” value (10 µM) did it give?
Answer: 0.125

Question: What about the “probe-labelled cysteine peptide fold change” value (50 µM) of the same target?
Answer: -0.0382

Question: Which “probe-labelled cysteine peptide fold change” value (10 µM) does the source give for “RANBP1_P43487_99_ICANHYITPMMELKPNAGSDR (UniProt P43487)” here?
Answer: -0.0756

Question: What about the “probe-labelled cysteine peptide fold change” value (50 µM) of the same target?
Answer: -0.0964

Question: For “RAP1GAP2_Q684P5_171_DHLNFYCTGSSLGNLILSVK (UniProt Q684P5)”, which “probe-labelled cysteine peptide fold change” value (10 µM) is on record?
Answer: -0.163

Question: What about the “probe-labelled cysteine peptide fold change” value (50 µM) of the same target?
Answer: 0.056

Question: “RASAL3_Q86YV0_546_CPASELPEHQAR (UniProt Q86YV0)” was tested. Which “probe-labelled cysteine peptide fold change” value (10 µM) did it give?
Answer: -0.0894

Question: What about the “probe-labelled cysteine peptide fold change” value (50 µM) of the same target?
Answer: -0.27

Question: Which “probe-labelled cysteine peptide fold change” value (10 µM) does the source give for “RCHY1_Q96PM5_164_VVAHVLPCGHLLHR (UniProt Q96PM5)” here?
Answer: -0.27

Question: What about the “probe-labelled cysteine peptide fold change” value (50 µM) of the same target?
Answer: 0.284

Question: What does the source list for “RAPGEF1_Q13905_1024_CFQQAHYDMR (UniProt Q13905)”?
Answer: probe-labelled cysteine peptide fold change (10 µM): -0.168; probe-labelled cysteine peptide fold change (50 µM): -0.0846

Question: “RANBP10_Q6VN20_501_RQLCGGNQAATER (UniProt Q6VN20)” was tested. Which “probe-labelled cysteine peptide fold change” value (10 µM) did it give?
Answer: -0.0995

Question: What about the “probe-labelled cysteine peptide fold change” value (50 µM) of the same target?
Answer: -0.04

Question: What does the source list for “RAI1_Q7Z5J4_790_GDTHEASACLGFQEEDPPGEK (UniProt Q7Z5J4)”?
Answer: probe-labelled cysteine peptide fold change (10 µM): -0.145; probe-labelled cysteine peptide fold change (50 µM): -0.333

Question: With “RANGAP1_P46060_82_CHWSDMFTGR (UniProt P46060)” as the target, how does the “probe-labelled cysteine peptide fold change” value (10 µM) read?
Answer: 0.177

Question: What about the “probe-labelled cysteine peptide fold change” value (50 µM) of the same target?
Answer: -0.189

Question: Which “probe-labelled cysteine peptide fold change” value (10 µM) does the source give for “RC3H1_Q5TC82_143_LVTLVHCQLVEEEGR (UniProt Q5TC82)” here?
Answer: -0.0878

Question: What about the “probe-labelled cysteine peptide fold change” value (50 µM) of the same target?
Answer: 0.288

Question: Which “probe-labelled cysteine peptide fold change” value (10 µM) does the source give for “RBM15_Q96T37_926_ENTGVLHAFPPCEFSQQFLDSPAK (UniProt Q96T37)” here?
Answer: -0.0929

Question: And the “probe-labelled cysteine peptide fold change” value (50 µM)?
Answer: -0.142

Question: How did the “probe-labelled cysteine peptide fold change” value (10 µM) turn out when “RAP1GAP2_Q684P5_185_CEEAEGIEYLR (UniProt Q684P5)” was run?
Answer: 0.119

Question: What about the “probe-labelled cysteine peptide fold change” value (50 µM) of the same target?
Answer: 0.145

Question: For “RBM19_Q9Y4C8_77_ITVEFCK (UniProt Q9Y4C8)”, which “probe-labelled cysteine peptide fold change” value (10 µM) is on record?
Answer: -0.0669

Question: What about the “probe-labelled cysteine peptide fold change” value (50 µM) of the same target?
Answer: -0.0167

Question: Which “probe-labelled cysteine peptide fold change” value (10 µM) does the source give for “RANBP6_O60518_188_LLDQCIQDQEHPAIR (UniProt O60518)” here?
Answer: -0.191

Question: What about the “probe-labelled cysteine peptide fold change” value (50 µM) of the same target?
Answer: -0.139

Question: How did the “probe-labelled cysteine peptide fold change” value (10 µM) turn out when “RAI14_Q9P0K7_139_TALHYAAAQGCLQAVQILCEHK (UniProt Q9P0K7)” was run?
Answer: -0.129

Question: And the “probe-labelled cysteine peptide fold change” value (50 µM)?
Answer: 0.111

Question: Which “probe-labelled cysteine peptide fold change” value (10 µM) does the source give for “RAE1_P78406_143_APNYSCVMTGSWDK (UniProt P78406)” here?
Answer: 0.081

Question: And the “probe-labelled cysteine peptide fold change” value (50 µM)?
Answer: 0.0104
